Reference: patent US5679645A, “Sialic acid powder and process for the preparation thereof” (Snow Brand Milk Products Co., Ltd., priority 1993, dated 1997)

Test: Reactivity: methyl esterification by Fisher method, reaction yield by HPLC
Type: physicochemical
Details: for Reaction yield after 2 hours / Reaction yield after 5 hours: methanol, Dowex 50, 25° C., HPLC

Row | SMILES | Reaction achieved after 24 hours (24 hours) [%] | Reaction yield after 2 hours [%] | Reaction yield after 5 hours [%]
1 | CC(=O)N[C@H]1[C@H]([C@H](O)[C@H](O)CO)OC(O)(C(=O)O)C[C@@H]1O (stereo partly shown) [Prisms 1-1, sialic acid] | < 100 | 57 | 79
2 | CC(=O)N[C@H]1[C@H]([C@H](O)[C@H](O)CO)OC(O)(C(=O)O)C[C@@H]1O (stereo partly shown) [Amorphous Powder 1-1, sialic acid] | – | 100 | 100
3 | CC(=O)N[C@H]1[C@H]([C@H](O)[C@H](O)CO)OC(O)(C(=O)O)C[C@@H]1O (stereo partly shown) [Needles 1-1, sialic acid] | – | 78 | 100
